Taken from: PubChem BioAssay AID1259405 (NCATS, 2018)
The whole screen tested about 50,000 reagents; shown is a random part of them. Of all reagents, about 4,000 (8%) got an active call. 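Mouse siRNA library applied to hamster cells; one well for each siRNA.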 The numbers tell different reagents against one gene apart. Not all columns of the deposit are shown.

Screen: 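Knock-downs that lift recombinant protein yield in hamster ovary cells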 (primary screen)
System: Chinese hamster CHO-K1 ovary cells with stable secreted eGFP expression
Reagents: single siRNA against mouse genes, 0.8 pmol siRNA per well (2 µl of 400 nM stock)
Duration: 3 days
Read-out: 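Per-well intracellular GFP measured by laser scanning cytometry, plus viability from ATP luminescence, each relative to plate median of non-targeting control wells, in %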
Scale: GFP, % of control: higher = more GFP per well, higher productivity
Active means: 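a knock-down is called active if GFP reaches 120% or more of non-targeting control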

GFP, % of control, by gene and reagent
Bud31 (BUD31 homolog): #1 76 inactive; #2 68.1 inactive; #3 95.5 inactive
Taf5l (TATA-box binding protein associated factor 5 like): #1 50.8 inactive; #2 69.2 inactive; #3 75.7 inactive
Nmi (N-myc (and STAT) interactor): #1 64 inactive; #2 145 active
Abcc12 (ATP-binding cassette, sub-family C member 12): #1 103 inactive; #2 81.5 inactive; #3 85.4 inactive
Hopx (HOP homeobox): #1 72.7 inactive; #2 82 inactive; #3 28.1 inactive
Adrb3 (adrenergic receptor, beta 3): #1 63.2 inactive; #2 80.6 inactive; #3 81.2 inactive
Tbc1d10a (TBC1 domain family, member 10a): #1 86.5 inactive; #2 132 active; #3 87 inactive
Atp5pf (ATP synthase peripheral stalk subunit F6): #1 74.9 inactive; #2 60.5 inactive; #3 68 inactive
Spaar (small regulatory polypeptide of amino acid response): #1 74 inactive; #2 107 inactive; #3 102 inactive
Eif4ebp3: #1 63.2 inactive; #2 59.7 inactive; #3 107 inactive
Hmox1 (heme oxygenase 1): #1 78.7 inactive; #2 49.3 inactive; #3 72 inactive
Adamts18 (ADAM metallopeptidase with thrombospondin type 1 motif 18): #1 103 inactive; #2 68.1 inactive; #3 87.1 inactive
Inhca (inhibitor of carbonic anhydrase): #1 126 active; #2 118 inactive; #3 64.1 inactive
Sox17 (SRY (sex determining region Y)-box 17): #1 83.4 inactive; #2 65.8 inactive; #3 96.4 inactive
Kcne5: #1 68.8 inactive; #2 114 inactive; #3 97.3 inactive
Pxdc1 (PX domain containing 1): #1 107 inactive; #2 68.3 inactive; #3 56.3 inactive
Gfap (glial fibrillary acidic protein): #1 118 inactive; #2 112 inactive
Adam23 (a disintegrin and metallopeptidase domain 23): #1 97.3 inactive; #2 100 inactive; #3 90.8 inactive
Vmn1r78 (vomeronasal 1 receptor 78): #1 145 active; #2 66.4 inactive; #3 61.2 inactive
Sp8 (trans-acting transcription factor 8): #1 77.4 inactive; #2 65.2 inactive; #3 92.7 inactive
Ptpdc1 (protein tyrosine phosphatase domain containing 1): #1 91.1 inactive; #2 91.2 inactive; #3 89 inactive
Ctdsp2 (CTD small phosphatase 2): #1 47.7 inactive; #2 90.5 inactive; #3 55.9 inactive
A430090L17Rik (RIKEN cDNA A430090L17 gene): #1 96.1 inactive; #2 74.1 inactive; #3 82.2 inactive
Slc25a31: #1 123 active; #2 127 active; #3 62.5 inactive
Snd1 (staphylococcal nuclease and tudor domain containing 1): #1 87.1 inactive; #2 111 inactive
Klk11 (kallikrein related-peptidase 11): #1 114 inactive; #2 86.8 inactive; #3 102 inactive
Sppl2c (signal peptide peptidase 2C): #1 76.9 inactive; #2 51.6 inactive; #3 71.7 inactive
Smg7 (SMG7 nonsense mediated mRNA decay factor): #1 84.9 inactive; #2 55.5 inactive; #3 71.2 inactive
Adat2 (adenosine deaminase, tRNA-specific 2): #1 28.4 inactive; #2 87.7 inactive; #3 112 inactive
Apoh (apolipoprotein H): #1 128 active; #2 125 active; #3 61.6 inactive
Bcl2l11 (BCL2 like 11): #1 47.7 inactive; #2 80.9 inactive; #3 101 inactive
Lrfn1: #1 149 active; #2 119 inactive; #3 106 inactive
Crhbp (corticotropin releasing hormone binding protein): #1 74.3 inactive; #2 75.2 inactive
Zfp175 (zinc finger protein 175): #1 74.3 inactive; #2 87.3 inactive; #3 75.6 inactive
Mtap (methylthioadenosine phosphorylase): #1 68.7 inactive; #2 48.9 inactive; #3 98 inactive
Chst12 (carbohydrate sulfotransferase 12): #1 104 inactive; #2 74.6 inactive; #3 79 inactive
Fxyd2 (FXYD domain-containing ion transport regulator 2): #1 95.1 inactive; #2 61.2 inactive; #3 79.9 inactive

15 consecutive reagents from above, for reference:
GFP, % of control, by gene and reagent
Inhca (inhibitor of carbonic anhydrase): #3 64.1 inactive
Sox17 (SRY (sex determining region Y)-box 17): #1 83.4 inactive; #2 65.8 inactive; #3 96.4 inactive
Kcne5: #1 68.8 inactive; #2 114 inactive; #3 97.3 inactive
Pxdc1 (PX domain containing 1): #1 107 inactive; #2 68.3 inactive; #3 56.3 inactive
Gfap (glial fibrillary acidic protein): #1 118 inactive; #2 112 inactive
Adam23 (a disintegrin and metallopeptidase domain 23): #1 97.3 inactive; #2 100 inactive; #3 90.8 inactive
